Results from article doi:10.1101/2025.10.31.685692.
These are yes or no findings as the source states them, for the method shown. In cells and extracts the contact can be indirect. Here binding means that the protein was enriched with, or labelled near, the bait; the list need not be complete. Where a sequence is shown, tags or fusion partners need not be part of it.

Sequences of proteins named here, by UniProt entry; tags and fusion partners are left off.
UniProt P55200: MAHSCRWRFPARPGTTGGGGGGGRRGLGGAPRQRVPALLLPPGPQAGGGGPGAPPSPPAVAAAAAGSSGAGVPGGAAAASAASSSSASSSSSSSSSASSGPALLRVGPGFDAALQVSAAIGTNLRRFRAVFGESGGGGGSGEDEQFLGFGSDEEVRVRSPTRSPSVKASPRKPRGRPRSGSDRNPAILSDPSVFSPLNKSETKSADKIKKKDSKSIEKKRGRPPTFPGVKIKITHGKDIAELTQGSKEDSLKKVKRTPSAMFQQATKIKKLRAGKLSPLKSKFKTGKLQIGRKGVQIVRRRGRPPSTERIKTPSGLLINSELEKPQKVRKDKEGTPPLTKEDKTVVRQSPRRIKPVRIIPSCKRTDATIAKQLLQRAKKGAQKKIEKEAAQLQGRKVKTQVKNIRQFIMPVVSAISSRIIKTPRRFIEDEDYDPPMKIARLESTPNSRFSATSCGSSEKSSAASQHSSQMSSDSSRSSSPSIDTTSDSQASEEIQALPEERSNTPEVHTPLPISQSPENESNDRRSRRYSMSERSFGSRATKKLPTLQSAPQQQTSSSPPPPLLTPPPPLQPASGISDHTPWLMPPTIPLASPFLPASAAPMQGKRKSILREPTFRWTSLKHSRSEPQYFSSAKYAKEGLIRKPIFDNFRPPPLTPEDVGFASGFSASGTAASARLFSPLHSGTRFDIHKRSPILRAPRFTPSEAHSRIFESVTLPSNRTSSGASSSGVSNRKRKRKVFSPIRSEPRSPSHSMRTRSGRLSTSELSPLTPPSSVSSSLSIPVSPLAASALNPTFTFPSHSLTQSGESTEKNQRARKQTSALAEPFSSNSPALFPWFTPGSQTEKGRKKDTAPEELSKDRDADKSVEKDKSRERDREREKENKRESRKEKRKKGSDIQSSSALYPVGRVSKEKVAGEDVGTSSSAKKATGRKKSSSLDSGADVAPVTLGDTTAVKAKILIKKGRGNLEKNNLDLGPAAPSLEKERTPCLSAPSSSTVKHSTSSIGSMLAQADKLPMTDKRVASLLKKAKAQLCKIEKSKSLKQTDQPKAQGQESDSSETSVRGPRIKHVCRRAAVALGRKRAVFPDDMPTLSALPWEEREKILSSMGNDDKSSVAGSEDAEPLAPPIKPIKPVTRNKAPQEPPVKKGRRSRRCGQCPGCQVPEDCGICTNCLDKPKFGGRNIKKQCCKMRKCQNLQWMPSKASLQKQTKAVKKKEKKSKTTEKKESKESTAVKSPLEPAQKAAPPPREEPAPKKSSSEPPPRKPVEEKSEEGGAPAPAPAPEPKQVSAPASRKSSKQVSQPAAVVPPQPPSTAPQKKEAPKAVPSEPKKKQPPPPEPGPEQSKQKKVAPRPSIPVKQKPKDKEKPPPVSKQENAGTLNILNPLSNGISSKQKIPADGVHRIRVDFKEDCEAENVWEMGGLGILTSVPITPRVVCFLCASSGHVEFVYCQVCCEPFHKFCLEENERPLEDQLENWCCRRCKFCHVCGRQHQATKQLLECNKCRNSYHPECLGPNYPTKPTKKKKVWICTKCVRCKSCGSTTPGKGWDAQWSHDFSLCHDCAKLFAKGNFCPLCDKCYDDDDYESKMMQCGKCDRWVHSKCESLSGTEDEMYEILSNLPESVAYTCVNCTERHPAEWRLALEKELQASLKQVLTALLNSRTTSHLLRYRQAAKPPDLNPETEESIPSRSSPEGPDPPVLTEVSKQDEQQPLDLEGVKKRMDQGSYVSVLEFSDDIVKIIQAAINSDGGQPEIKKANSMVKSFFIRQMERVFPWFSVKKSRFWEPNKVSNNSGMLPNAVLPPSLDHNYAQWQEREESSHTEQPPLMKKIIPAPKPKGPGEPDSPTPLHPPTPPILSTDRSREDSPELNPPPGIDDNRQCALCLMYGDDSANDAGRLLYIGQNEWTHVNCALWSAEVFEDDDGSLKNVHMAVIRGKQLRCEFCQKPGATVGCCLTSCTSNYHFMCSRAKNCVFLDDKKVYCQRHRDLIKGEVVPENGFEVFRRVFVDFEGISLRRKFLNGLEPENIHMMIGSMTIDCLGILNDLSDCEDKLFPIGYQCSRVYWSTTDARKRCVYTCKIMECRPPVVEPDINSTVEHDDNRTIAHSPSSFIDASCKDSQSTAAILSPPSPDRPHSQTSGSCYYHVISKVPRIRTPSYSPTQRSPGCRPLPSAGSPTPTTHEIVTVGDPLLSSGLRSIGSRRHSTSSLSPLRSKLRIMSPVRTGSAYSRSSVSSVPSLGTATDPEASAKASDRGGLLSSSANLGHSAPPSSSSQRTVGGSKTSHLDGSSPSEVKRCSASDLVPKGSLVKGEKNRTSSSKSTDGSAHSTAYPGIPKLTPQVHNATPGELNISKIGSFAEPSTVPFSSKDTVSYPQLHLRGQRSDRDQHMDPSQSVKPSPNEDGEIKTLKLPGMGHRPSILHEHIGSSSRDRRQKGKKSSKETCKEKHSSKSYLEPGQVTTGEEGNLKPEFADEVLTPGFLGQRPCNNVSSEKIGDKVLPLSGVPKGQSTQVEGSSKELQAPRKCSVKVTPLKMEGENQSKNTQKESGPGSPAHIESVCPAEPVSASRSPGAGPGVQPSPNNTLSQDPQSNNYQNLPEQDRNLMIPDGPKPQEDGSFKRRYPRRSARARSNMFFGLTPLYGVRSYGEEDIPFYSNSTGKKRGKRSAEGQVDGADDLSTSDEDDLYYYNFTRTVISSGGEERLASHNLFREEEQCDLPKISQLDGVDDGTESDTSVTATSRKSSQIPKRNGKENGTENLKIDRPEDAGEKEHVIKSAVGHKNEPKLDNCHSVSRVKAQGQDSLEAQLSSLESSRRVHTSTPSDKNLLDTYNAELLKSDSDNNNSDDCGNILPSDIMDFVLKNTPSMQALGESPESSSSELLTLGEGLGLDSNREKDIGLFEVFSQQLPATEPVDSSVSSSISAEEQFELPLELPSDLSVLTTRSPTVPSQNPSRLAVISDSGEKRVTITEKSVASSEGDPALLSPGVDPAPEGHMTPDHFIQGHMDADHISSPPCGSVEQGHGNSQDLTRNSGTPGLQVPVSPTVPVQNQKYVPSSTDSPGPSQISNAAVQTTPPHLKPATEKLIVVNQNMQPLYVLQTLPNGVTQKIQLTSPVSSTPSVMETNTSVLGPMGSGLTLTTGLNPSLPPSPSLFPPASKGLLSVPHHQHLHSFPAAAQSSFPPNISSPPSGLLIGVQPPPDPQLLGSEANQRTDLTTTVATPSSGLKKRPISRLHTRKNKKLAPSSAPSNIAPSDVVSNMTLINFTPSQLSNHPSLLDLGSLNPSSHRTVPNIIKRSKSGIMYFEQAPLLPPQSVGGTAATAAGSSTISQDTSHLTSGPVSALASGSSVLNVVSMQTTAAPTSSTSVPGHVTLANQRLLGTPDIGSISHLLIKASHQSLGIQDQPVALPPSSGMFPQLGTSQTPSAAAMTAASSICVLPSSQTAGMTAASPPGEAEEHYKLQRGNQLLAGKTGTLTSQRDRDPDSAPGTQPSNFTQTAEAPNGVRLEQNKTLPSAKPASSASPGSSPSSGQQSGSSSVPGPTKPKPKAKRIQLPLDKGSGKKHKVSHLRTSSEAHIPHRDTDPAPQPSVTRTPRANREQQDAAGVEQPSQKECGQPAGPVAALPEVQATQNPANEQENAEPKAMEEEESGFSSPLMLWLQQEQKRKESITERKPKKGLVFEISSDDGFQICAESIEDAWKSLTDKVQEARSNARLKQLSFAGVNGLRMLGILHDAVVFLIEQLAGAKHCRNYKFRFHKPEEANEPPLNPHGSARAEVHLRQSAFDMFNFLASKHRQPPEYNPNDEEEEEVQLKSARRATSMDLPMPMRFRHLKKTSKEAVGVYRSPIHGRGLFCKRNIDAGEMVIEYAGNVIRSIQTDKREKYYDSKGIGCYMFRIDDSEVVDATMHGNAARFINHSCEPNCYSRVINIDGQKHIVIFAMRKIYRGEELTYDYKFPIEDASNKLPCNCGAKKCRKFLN
UniProt O88491: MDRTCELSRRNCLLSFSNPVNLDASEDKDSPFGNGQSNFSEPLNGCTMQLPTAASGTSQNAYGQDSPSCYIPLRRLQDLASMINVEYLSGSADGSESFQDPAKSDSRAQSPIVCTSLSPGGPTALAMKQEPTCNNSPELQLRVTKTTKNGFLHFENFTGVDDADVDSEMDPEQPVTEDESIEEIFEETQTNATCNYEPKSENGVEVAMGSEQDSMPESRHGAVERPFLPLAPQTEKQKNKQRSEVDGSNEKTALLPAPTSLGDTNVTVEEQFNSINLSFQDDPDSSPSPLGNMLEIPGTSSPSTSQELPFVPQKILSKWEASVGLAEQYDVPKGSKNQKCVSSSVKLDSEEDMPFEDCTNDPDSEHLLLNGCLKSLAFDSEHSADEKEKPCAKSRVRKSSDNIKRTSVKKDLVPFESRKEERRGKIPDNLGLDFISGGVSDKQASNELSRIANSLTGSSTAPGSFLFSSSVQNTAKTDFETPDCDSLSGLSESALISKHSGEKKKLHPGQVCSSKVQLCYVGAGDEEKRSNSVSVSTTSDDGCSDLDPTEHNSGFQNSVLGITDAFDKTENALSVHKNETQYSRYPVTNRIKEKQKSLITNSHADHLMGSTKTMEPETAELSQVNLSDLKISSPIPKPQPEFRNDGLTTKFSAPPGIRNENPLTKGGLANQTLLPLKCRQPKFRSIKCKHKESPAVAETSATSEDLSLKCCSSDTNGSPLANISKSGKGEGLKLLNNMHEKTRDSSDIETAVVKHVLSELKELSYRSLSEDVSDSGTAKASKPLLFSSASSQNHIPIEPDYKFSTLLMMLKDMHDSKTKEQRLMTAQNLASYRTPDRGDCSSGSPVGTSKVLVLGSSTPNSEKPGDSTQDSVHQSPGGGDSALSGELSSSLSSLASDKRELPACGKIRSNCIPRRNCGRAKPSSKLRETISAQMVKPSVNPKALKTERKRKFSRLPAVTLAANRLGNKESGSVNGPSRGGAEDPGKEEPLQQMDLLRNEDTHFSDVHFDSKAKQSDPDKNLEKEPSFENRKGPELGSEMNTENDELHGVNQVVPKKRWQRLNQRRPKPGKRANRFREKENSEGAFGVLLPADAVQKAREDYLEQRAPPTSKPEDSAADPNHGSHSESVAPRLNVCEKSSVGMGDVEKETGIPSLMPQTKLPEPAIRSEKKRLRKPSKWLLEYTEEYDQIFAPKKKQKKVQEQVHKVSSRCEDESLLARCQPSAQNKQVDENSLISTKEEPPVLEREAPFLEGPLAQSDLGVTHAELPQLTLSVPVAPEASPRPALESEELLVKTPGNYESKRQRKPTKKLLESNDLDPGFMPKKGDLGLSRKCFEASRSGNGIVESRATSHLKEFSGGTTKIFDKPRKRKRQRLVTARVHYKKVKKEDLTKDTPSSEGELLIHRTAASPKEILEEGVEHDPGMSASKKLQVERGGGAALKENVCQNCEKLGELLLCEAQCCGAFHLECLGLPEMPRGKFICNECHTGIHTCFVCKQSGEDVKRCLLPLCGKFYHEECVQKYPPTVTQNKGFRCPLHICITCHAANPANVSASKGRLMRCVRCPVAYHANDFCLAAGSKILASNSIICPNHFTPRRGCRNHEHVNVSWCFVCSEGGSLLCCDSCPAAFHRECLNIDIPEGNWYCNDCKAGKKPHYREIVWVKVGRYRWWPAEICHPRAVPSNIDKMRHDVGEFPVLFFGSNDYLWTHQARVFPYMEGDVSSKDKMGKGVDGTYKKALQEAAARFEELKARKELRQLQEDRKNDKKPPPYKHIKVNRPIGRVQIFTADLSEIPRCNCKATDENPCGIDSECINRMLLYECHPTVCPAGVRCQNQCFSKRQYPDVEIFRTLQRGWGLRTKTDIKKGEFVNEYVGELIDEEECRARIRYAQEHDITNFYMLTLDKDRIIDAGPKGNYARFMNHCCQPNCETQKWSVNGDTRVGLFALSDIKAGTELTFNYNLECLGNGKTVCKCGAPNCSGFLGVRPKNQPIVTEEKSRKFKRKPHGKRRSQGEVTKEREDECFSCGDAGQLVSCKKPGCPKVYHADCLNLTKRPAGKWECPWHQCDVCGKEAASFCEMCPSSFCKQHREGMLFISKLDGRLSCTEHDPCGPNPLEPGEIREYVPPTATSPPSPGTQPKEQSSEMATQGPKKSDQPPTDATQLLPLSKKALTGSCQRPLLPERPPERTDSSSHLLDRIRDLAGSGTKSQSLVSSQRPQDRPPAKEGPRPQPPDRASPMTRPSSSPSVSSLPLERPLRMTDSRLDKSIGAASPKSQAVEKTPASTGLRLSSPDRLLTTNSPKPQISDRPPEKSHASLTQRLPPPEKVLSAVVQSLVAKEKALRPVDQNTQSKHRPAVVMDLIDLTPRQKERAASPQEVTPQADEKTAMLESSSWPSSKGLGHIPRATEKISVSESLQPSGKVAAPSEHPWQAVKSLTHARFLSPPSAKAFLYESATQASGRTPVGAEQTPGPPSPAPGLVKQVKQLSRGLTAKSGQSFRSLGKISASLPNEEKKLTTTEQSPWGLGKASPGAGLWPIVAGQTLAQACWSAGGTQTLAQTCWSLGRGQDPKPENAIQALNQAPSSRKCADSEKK

Target: T1, FLAG-HA-tagged ZMYND11 (endogenous, Zmynd11-FH knock-in mouse) (mouse (endogenous in brain tissue)) (UniProt Q8R5C8)
T1 sequence: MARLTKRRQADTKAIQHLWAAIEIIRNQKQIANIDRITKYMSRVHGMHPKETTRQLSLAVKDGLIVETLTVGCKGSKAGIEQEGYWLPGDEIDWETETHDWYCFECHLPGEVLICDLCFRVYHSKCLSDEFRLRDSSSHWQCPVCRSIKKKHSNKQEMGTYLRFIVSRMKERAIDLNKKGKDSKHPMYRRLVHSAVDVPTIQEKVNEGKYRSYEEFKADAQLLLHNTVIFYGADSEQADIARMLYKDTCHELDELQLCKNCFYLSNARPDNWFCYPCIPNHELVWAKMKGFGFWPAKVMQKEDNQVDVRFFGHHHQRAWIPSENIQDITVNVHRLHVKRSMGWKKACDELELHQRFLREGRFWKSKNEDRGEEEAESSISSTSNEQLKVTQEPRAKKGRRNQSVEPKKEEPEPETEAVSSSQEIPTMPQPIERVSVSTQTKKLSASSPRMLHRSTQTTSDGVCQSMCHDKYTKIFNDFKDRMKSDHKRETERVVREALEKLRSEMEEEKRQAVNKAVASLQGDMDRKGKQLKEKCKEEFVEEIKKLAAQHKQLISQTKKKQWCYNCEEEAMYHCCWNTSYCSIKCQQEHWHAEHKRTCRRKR
Test: affinity purification with mass spectrometry; anti-FLAG (anti-DYKDDDK magnetic agarose) immunoprecipitation of endogenous FLAG-HA-ZMYND11 from nuclear lysates (420 mM NaCl extract plus MNase-digested chromatin, diluted to 150 mM NaCl) of Zmynd11-FH whole brain; washes NE1 + 250 mM NaCl; elution with 3XFLAG peptide; LC/MS-MS; wild-type littermates as control

Substance	binding
KMT2A (MLL1), mouse brain (from UniProt P55200 1-3966)	binds
NSD1, mouse brain (from UniProt O88491 1-2588)	binds

Target: T2, FLAG-HA-tagged ZMYND11, wild type, expressed in HEK293T cells (UniProt Q15326)
T2 sequence: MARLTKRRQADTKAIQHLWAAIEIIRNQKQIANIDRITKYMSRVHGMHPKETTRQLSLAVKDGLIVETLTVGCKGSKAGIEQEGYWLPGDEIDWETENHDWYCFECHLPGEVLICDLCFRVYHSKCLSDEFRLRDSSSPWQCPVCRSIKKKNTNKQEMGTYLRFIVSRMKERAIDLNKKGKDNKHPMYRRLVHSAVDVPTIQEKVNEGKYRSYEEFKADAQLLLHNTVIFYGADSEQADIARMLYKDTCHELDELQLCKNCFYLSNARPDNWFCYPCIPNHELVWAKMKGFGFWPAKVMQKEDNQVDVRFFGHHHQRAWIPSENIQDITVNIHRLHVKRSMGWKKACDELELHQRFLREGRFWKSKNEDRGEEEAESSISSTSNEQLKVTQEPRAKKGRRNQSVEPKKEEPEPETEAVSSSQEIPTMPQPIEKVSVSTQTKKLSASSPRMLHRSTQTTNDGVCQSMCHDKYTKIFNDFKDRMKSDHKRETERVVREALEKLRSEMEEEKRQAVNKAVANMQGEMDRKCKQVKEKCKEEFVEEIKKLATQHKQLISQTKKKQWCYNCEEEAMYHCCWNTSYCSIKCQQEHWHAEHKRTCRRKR
Test: affinity purification with mass spectrometry; FLAG-tagged ZMYND11 constructs (WT, R600W, ΔMYND) or FH-GFP-SV40NLS expressed in HEK293T; anti-FLAG immunoprecipitation from nuclear lysates; quantitative tandem mass tag mass spectrometry (TMT-MS), intensities normalised to bait

Substance	binding
ASH2L, endogenous in HEK293T cells (from UniProt Q9UBL3 1-628)	binds
KMT2A (MLL1), endogenous in HEK293T cells (from UniProt Q03164 1-3969)	binds
NSD1, endogenous in HEK293T cells (from UniProt Q96L73 1-2696)	binds
RBBP5, endogenous in HEK293T cells (from UniProt Q15291 1-538)	binds
